The source gives many values for each of these; only a part stands here.
Test system: TFG-MET allograft tumors
Experiment: RNA-sequencing, differential expression and GSEA of TFG-MET allograft tumors
Assay type: in vivo, mouse
Conditions: CAP.v.Veh
Experimental: Error bars display standard error of mean, statistical significance was determined using t-test analysis. (****;p<0.0001, ***;p<0.001, **;p<0.01, *;p<0.05). […] Each dot represents an individual replicate. Error bars display standard error of the mean.
Each dot represents one gene.

[1] = GOCC_ENDOPLASMIC_RETICULUM_TUBULAR_NETWORK
[2] = GOCC_ER_TO_GOLGI_TRANSPORT_VESICLE_MEMBRANE
[3] = GOCC_EXTRINSIC_COMPONENT_OF_MEMBRANE
[4] = GOCC_EXTRINSIC_COMPONENT_OF_ORGANELLE_MEMBRANE
[5] = GOCC_EXTRINSIC_COMPONENT_OF_PLASMA_MEMBRANE
[6] = GOCC_FICOLIN_1_RICH_GRANULE_LUMEN
[7] = GOCC_GOLGI_ASSOCIATED_VESICLE_MEMBRANE
[8] = GOCC_HIPPOCAMPAL_MOSSY_FIBER_TO_CA3_SYNAPSE
[9] = GOCC_HISTONE_DEACETYLASE_COMPLEX
[10] = GOCC_INTERMEDIATE_FILAMENT_CYTOSKELETON
[11] = GOCC_INTRINSIC_COMPONENT_OF_EXTERNAL_SIDE_OF_PLASMA_MEMBRANE
[12] = GOCC_INTRINSIC_COMPONENT_OF_GOLGI_MEMBRANE
[13] = GOCC_INTRINSIC_COMPONENT_OF_MITOCHONDRIAL_INNER_MEMBRANE
[14] = GOCC_INTRINSIC_COMPONENT_OF_MITOCHONDRIAL_OUTER_MEMBRANE
[15] = GOCC_INTRINSIC_COMPONENT_OF_ORGANELLE_MEMBRANE
[16] = GOCC_INTRINSIC_COMPONENT_OF_PEROXISOMAL_MEMBRANE
[17] = GOCC_INTRINSIC_COMPONENT_OF_POSTSYNAPTIC_DENSITY_MEMBRANE
[18] = GOCC_INTRINSIC_COMPONENT_OF_POSTSYNAPTIC_SPECIALIZATION_MEMBRANE
[19] = GOCC_INTRINSIC_COMPONENT_OF_PRESYNAPTIC_MEMBRANE
[20] = GOCC_LUMENAL_SIDE_OF_ENDOPLASMIC_RETICULUM_MEMBRANE
[21] = GOCC_MITOCHONDRIAL_LARGE_RIBOSOMAL_SUBUNIT
[22] = GOCC_MITOCHONDRIAL_SMALL_RIBOSOMAL_SUBUNIT
[23] = GOCC_NEURON_PROJECTION_CYTOPLASM
[24] = GOCC_NEURON_PROJECTION_MEMBRANE
[25] = GOCC_NEUROTRANSMITTER_RECEPTOR_COMPLEX
[26] = GOCC_NUCLEAR_UBIQUITIN_LIGASE_COMPLEX
[27] = GOCC_ORGANELLE_MEMBRANE_CONTACT_SITE
[28] = GOCC_OUTER_MITOCHONDRIAL_MEMBRANE_PROTEIN_COMPLEX
[29] = GOCC_PERICENTRIC_HETEROCHROMATIN

Question: Which results are given for `CNC(=O)c1ccc(-c2cnc3ncc(Cc4ccc5ncccc5c4)n3n2)cc1F` [Capmatinib]?
Answer: NES (GOCC_ENDOPLASMIC_RETICULUM_QUALITY_CONTROL_COMPARTMENT): 1.008; ES [1]: 0.3331; NES [1]: 1.16; ES [2]: -0.2748; NES [2]: -1.032; ES (GOCC_ESCRT_COMPLEX): 0.3674; NES (GOCC_ESCRT_COMPLEX): 1.329; ES (GOCC_EXCITATORY_SYNAPSE): 0.242; NES (GOCC_EXCITATORY_SYNAPSE): 1.023; ES (GOCC_EXOCYST): 0.2995; NES (GOCC_EXOCYST): 0.9932; ES [3]: -0.2076; NES [3]: -0.9536; ES [4]: 0.22; NES [4]: 0.9521; ES [5]: -0.2067; NES [5]: -0.8998; ES [6]: 0.1986; NES [6]: 1.018; ES (GOCC_FILOPODIUM): -0.2802; NES (GOCC_FILOPODIUM): -1.142; ES (GOCC_FILOPODIUM_TIP): -0.3369; NES (GOCC_FILOPODIUM_TIP): -0.9394; ES (GOCC_FLEMMING_BODY): 0.186; NES (GOCC_FLEMMING_BODY): 0.7169; ES (GOCC_GABA_ERGIC_SYNAPSE): -0.2414; NES (GOCC_GABA_ERGIC_SYNAPSE): -0.9108; ES (GOCC_GABA_RECEPTOR_COMPLEX): -0.2499; NES (GOCC_GABA_RECEPTOR_COMPLEX): -0.6969; ES (GOCC_GAMMA_TUBULIN_COMPLEX): -0.4445; NES (GOCC_GAMMA_TUBULIN_COMPLEX): -1.309; ES (GOCC_GAP_JUNCTION): 0.2412; NES (GOCC_GAP_JUNCTION): 0.8154; ES (GOCC_GLIAL_CELL_PROJECTION): -0.3063; NES (GOCC_GLIAL_CELL_PROJECTION): -0.9976; ES (GOCC_GOLGI_ASSOCIATED_VESICLE): -0.2261; NES (GOCC_GOLGI_ASSOCIATED_VESICLE): -0.8988; ES [7]: -0.2553; NES [7]: -0.9152; ES (GOCC_GOLGI_CISTERNA_MEMBRANE): -0.2134; NES (GOCC_GOLGI_CISTERNA_MEMBRANE): -0.8134; ES (GOCC_GOLGI_LUMEN): -0.2399; NES (GOCC_GOLGI_LUMEN): -0.9201; ES (GOCC_GTPASE_COMPLEX): 0.273; NES (GOCC_GTPASE_COMPLEX): 1.059; ES [8]: 0.3101; NES [8]: 1.194; ES [9]: -0.334; NES [9]: -1.306; ES (GOCC_INCLUSION_BODY): -0.3051; NES (GOCC_INCLUSION_BODY): -1.177; ES (GOCC_INO80_TYPE_COMPLEX): -0.437; NES (GOCC_INO80_TYPE_COMPLEX): -1.3785; ES (GOCC_INTERCALATED_DISC): 0.1889; NES (GOCC_INTERCALATED_DISC): 0.7989; ES (GOCC_INTERCELLULAR_BRIDGE): -0.2897; NES (GOCC_INTERCELLULAR_BRIDGE): -1.115; ES [10]: -0.2678; NES [10]: -1.105; ES [11]: 0.2304; NES [11]: 0.7871; ES [12]: -0.1946; NES [12]: -0.7334; ES [13]: -0.2479; NES [13]: -0.8967; ES [14]: -0.2385; NES [14]: -0.7165; ES [15]: 0.1635; NES [15]: 0.9668; ES [16]: 0.4051; NES [16]: 1.273; ES [17]: 0.1796; NES [17]: 0.7979; ES [18]: 0.187; NES [18]: 0.8651; ES [19]: 0.2218; NES [19]: 1.013; ES (GOCC_I_BAND): -0.224; NES (GOCC_I_BAND): -0.9319; ES (GOCC_KINESIN_COMPLEX): -0.2872; NES (GOCC_KINESIN_COMPLEX): -1.039; ES (GOCC_LAMELLIPODIUM): -0.2624; NES (GOCC_LAMELLIPODIUM): -1.1621; ES (GOCC_LAMELLIPODIUM_MEMBRANE): -0.4293; NES (GOCC_LAMELLIPODIUM_MEMBRANE): -1.29; ES (GOCC_LATERAL_PLASMA_MEMBRANE): -0.3223; NES (GOCC_LATERAL_PLASMA_MEMBRANE): -1.2046; ES (GOCC_LEADING_EDGE_MEMBRANE): -0.2256; NES (GOCC_LEADING_EDGE_MEMBRANE): -0.9818; ES (GOCC_LIPID_DROPLET): 0.2172; NES (GOCC_LIPID_DROPLET): 1.054; ES [20]: 0.2101; NES [20]: 0.7862; ES (GOCC_LUMENAL_SIDE_OF_MEMBRANE): 0.2702; NES (GOCC_LUMENAL_SIDE_OF_MEMBRANE): 1.041; ES (GOCC_MEDIATOR_COMPLEX): -0.3883; NES (GOCC_MEDIATOR_COMPLEX): -1.323; ES (GOCC_MEMBRANE_COAT): 0.2275; NES (GOCC_MEMBRANE_COAT): 1.1094; ES (GOCC_MICROBODY_MEMBRANE): 0.2504; NES (GOCC_MICROBODY_MEMBRANE): 1.144; ES (GOCC_MICROTUBULE): -0.1933; NES (GOCC_MICROTUBULE): -0.9075; ES (GOCC_MICROTUBULE_PLUS_END): -0.3584; NES (GOCC_MICROTUBULE_PLUS_END): -1.083; ES (GOCC_MICROVILLUS): -0.2262; NES (GOCC_MICROVILLUS): -0.8861; ES (GOCC_MICROVILLUS_MEMBRANE): -0.3083; NES (GOCC_MICROVILLUS_MEMBRANE): -0.9243; ES (GOCC_MIDBODY): -0.2664; NES (GOCC_MIDBODY): -1.167; ES [21]: -0.2033; NES [21]: -0.7591; ES (GOCC_MITOCHONDRIAL_MATRIX): -0.2353; NES (GOCC_MITOCHONDRIAL_MATRIX): -1.112; ES [22]: -0.3811; NES [22]: -1.234; ES (GOCC_MYELIN_SHEATH): 0.2061; NES (GOCC_MYELIN_SHEATH): 0.8615; ES (GOCC_MYOSIN_COMPLEX): 0.2344; NES (GOCC_MYOSIN_COMPLEX): 1.047; ES (GOCC_MYOSIN_FILAMENT): 0.235; NES (GOCC_MYOSIN_FILAMENT): 0.8028; ES (GOCC_MYOSIN_II_COMPLEX): 0.3839; NES (GOCC_MYOSIN_II_COMPLEX): 1.206; ES (GOCC_M_BAND): 0.3844; NES (GOCC_M_BAND): 1.299; ES (GOCC_NBAF_COMPLEX): -0.3185; NES (GOCC_NBAF_COMPLEX): -0.869; ES (GOCC_NEUROMUSCULAR_JUNCTION): 0.2157; NES (GOCC_NEUROMUSCULAR_JUNCTION): 1.0027; ES [23]: 0.2032; NES [23]: 0.9881; ES [24]: 0.1863; NES [24]: 0.8353; ES (GOCC_NEURON_SPINE): 0.1636; NES (GOCC_NEURON_SPINE): 0.8854; ES [25]: -0.2547; NES [25]: -0.9227; ES [26]: -0.3651; NES [26]: -1.271; ES (GOCC_ORGANELLAR_RIBOSOME): -0.2237; NES (GOCC_ORGANELLAR_RIBOSOME): -0.8894; ES (GOCC_ORGANELLE_ENVELOPE_LUMEN): -0.2651; NES (GOCC_ORGANELLE_ENVELOPE_LUMEN): -1.06; ES (GOCC_ORGANELLE_INNER_MEMBRANE): 0.1789; NES (GOCC_ORGANELLE_INNER_MEMBRANE): 1.091; ES [27]: 0.2208; NES [27]: 0.8819; ES (GOCC_OUTER_MEMBRANE): -0.2332; NES (GOCC_OUTER_MEMBRANE): -1.036; ES [28]: -0.4368; NES [28]: -1.286; ES (GOCC_PEPTIDASE_COMPLEX): -0.195; NES (GOCC_PEPTIDASE_COMPLEX): -0.7757; ES [29]: -0.4697; NES [29]: -1.383; ES (GOCC_PERIKARYON): 0.1957; NES (GOCC_PERIKARYON): 1.046; ES (GOCC_PERINUCLEAR_ENDOPLASMIC_RETICULUM): -0.2559
